Data as given in PubChem BioAssay AID652259 (Drosophila RNAi Screening Center, 2013)
In all, the deposit lists about 22,000 reagents; below is a random part of those that have a named target and a result. In the full data, 233 (1.1%) got an active call. 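Light values are raw, unnormalised plate reads; the ratio scores behind the reporter calls were not deposited.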 Entries without a mark were called inactive. A plus sign joins genes that one reagent is predicted to hit. No sequences are given here. Not stated in the record: the amount of reagent, the time to read-out, the dose of the treatment.

Test: 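Identify new Wingless signalling regulators in fly cells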 (primary screen)
System: Drosophila clone 8 imaginal disc epithelial cells
Reagents: long dsRNA against Drosophila genes
Challenge: pathway stimulated by co-transfected Wingless expression plasmid
Detection: 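Firefly luciferase from a tcf-site Wingless reporter, measured alongside co-transfected Renilla luciferase that tracks transfection; pathway stimulated by a Wingless plasmid; the firefly-to-Renilla ratio is not deposited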
Direction: firefly reporter light: higher = more Wg reporter light, before normalisation; Renilla control light: higher = more transfected or surviving cells
Active means: 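a knock-down is a candidate when at least two out of four statistical tests show it departing from its plate mean; one test alone signals a weak candidate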
Meaning of the calls: active = candidate regulator (raises or lowers reporter); inactive = not a candidate

gene knocked down	amplicon	reporter change call, replicate 1	firefly reporter light, replicate 1	firefly reporter light, replicate 2	Renilla control light, replicate 1	Renilla control light, replicate 2
CG13728	DRSC10056		6920		2816	
CG6429	DRSC06986		4551		2192	
CG17375	DRSC02614		3060	6695	1138	1888
CG15042	DRSC19618		24980		9962	
CG43896	DRSC10288		6326		3244	
CG43896	DRSC10754		5873		2850	
CG32603	DRSC19409		28101		13859	
CG32603	DRSC21586		6.36e5	6.48e5	3.66e5	2.52e5
t-Grip128	DRSC07853		4102		1922	
BthD	DRSC19395		23576		11574	
CG34355	DRSC13639		5057		2203	
CG34355	DRSC14520		18726		15529	
CG34355	DRSC14668		19498		16969	
CG34355	DRSC21687		7.36e5	6.88e5	3.61e5	2.92e5
Cox10	DRSC02804		6752		2285	
CG32087	DRSC10806		8167		2624	
endos	DRSC10658		4074		1773	
jdp	DRSC16975		3911	7387	1362	1056
Antdh	DRSC20307		18108		9368	
Svil	DRSC07981		3985		1616	
Svil	DRSC08296		15335		3468	
Svil	DRSC08332		7512		2848	
Svil	DRSC08333	Wg reporter activity raised	6172		1126	
Svil	DRSC08494		4183		2466	
CR40441	DRSC22916		4.80e5	5.63e5	1.92e5	1.78e5
CG31327	DRSC13019		2492		925	
BtbVII	DRSC08151		5024		1096	
BtbVII	DRSC08415		4761		1917	
Kdm4A	DRSC06586		14717		4346	
Wdr82	DRSC02595		23229		11297	
Wdr82	DRSC21723		3.40e5	3.69e5	1.54e5	1.42e5
Obp57c + Obp57b	DRSC21914		2.47e5	2.97e5	1.10e5	1.23e5
Pop1	DRSC17739		2363	5719	1233	2641
CG34193	DRSC05665		14752		8965	
Mi-2	DRSC11222	Wg reporter activity raised (active)	57387		6132	
Atg18a	DRSC10943		5336		1700	
CG13947	DRSC00365		4736	6794	1852	4208
Syn1	DRSC11803		20560		6333	
Syn1	DRSC11804		10360		4371	
Mys45A	DRSC07067		8807		2725	
lms	DRSC06387		3894		1894	
CG14818	DRSC18548		28779		17216	
CG6051	DRSC15956		2986	4379	941	1459
CG13063	DRSC09946		8576		4204	
CG14073	DRSC10078		6560		2087	
CG32069 + Blos2	DRSC10621		5041		2192	
CG5707	DRSC08573		18535		4918	
dah	DRSC20320		2418	7562	941	2845
CR32011 + CR32010 + PlexB + 1 more	DRSC21664		5.58e5	5.12e5	2.16e5	1.98e5

Records listed so far whose gene name starts with S or s (7):
gene knocked down	amplicon	reporter change call, replicate 1	firefly reporter light, replicate 1	firefly reporter light, replicate 2	Renilla control light, replicate 1	Renilla control light, replicate 2
Svil	DRSC07981		3985		1616	
Svil	DRSC08296		15335		3468	
Svil	DRSC08332		7512		2848	
Svil	DRSC08333	Wg reporter activity raised	6172		1126	
Svil	DRSC08494		4183		2466	
Syn1	DRSC11803		20560		6333	
Syn1	DRSC11804		10360		4371	
